Source: PubChem BioAssay AID1259308 (NCATS, 2017)
In all, the deposit lists about 59,000 reagents; this is a random part of them. In the full data, about 1,510 (2.6%) are marked active. 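Calls use total luciferase alone and ignore viability, so some active siRNAs may act by altering cell number.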 The numbers tell different reagents against one gene apart.

Test: 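Candidate targets for better recombinant protein yield in mammalian cells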 (primary screen)
Cells: human HEK293 embryonic kidney cells stably expressing firefly luciferase (HEK-CMV-Luc2-Hygro)
Knock-down reagent: single siRNA against human genes, 0.8 pmol siRNA per well
Duration: 72 h
Measured: 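Reporter luminescence and viable-cell signal on separate replicate plates, given as percent of non-targeting control and median/MAD z-scores, plus per-cell luciferase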
Direction: total luciferase, z-score and total luciferase, % of control: higher = more reporter protein produced; luciferase per cell, z-score: higher = more reporter output per viable cell; viable cells, % of control: higher = more viable cells
Rule for the call: 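An siRNA counts as active if its total luciferase robust z-score exceeds 3; genes with two or more such siRNAs out of three were retested with fresh siRNAs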
Calls: active = raised luciferase; inactive = no rise

gene | reagent no. | total luciferase, z-score | total luciferase, % of control | luciferase per cell, z-score | viable cells, % of control | activity call
ATP2B4 | 1 | 0.0763 | 83.4 | -0.485 | 106 | inactive
ATP2B4 | 2 | -0.138 | 79.1 | -0.196 | 93.1 | inactive
ATP2B4 | 3 | -0.0741 | 80.4 | -1.16 | 122 | inactive
MOCS2 | 1 | 0.2 | 85.9 | 1.18 | 70.4 | inactive
MOCS2 | 2 | 0.316 | 88.2 | 0.923 | 77.3 | inactive
MOCS2 | 3 | -0.431 | 73.3 | -0.97 | 106 | inactive
RNASET2 | 1 | -0.115 | 79.6 | 0.0426 | 88 | inactive
RNASET2 | 2 | 1.73 | 116 | 0.768 | 106 | inactive
RNASET2 | 3 | -0.412 | 73.7 | 0.563 | 71 | inactive
JKAMP | 1 | -1.08 | 60.4 | -0.989 | 87.5 | inactive
JKAMP | 2 | -1.52 | 51.6 | -1.22 | 79.4 | inactive
JKAMP | 3 | -0.802 | 65.9 | -1.13 | 99.1 | inactive
TAPBPL | 1 | 0.153 | 84.9 | 0.72 | 78.5 | inactive
TAPBPL | 2 | 0.401 | 89.9 | 0.412 | 90.1 | inactive
TAPBPL | 3 | -0.188 | 78.1 | -0.0116 | 87.6 | inactive
KRT74 | 1 | 0.313 | 88.1 | 0.613 | 83.8 | inactive
KRT74 | 2 | -0.416 | 73.6 | 0.127 | 79.5 | inactive
KRT74 | 3 | -0.757 | 66.8 | -0.945 | 95.8 | inactive
CEP152 | 1 | -0.0309 | 81.3 | -0.213 | 96.1 | inactive
CEP152 | 2 | -1.43 | 53.4 | -0.591 | 69.8 | inactive
CEP152 | 3 | 0.727 | 96.3 | 0.702 | 89.5 | inactive
ACMSD | 1 | -0.51 | 71.7 | -0.566 | 93 | inactive
ACMSD | 2 | 0.219 | 86.2 | 0.441 | 85.8 | inactive
ACMSD | 3 | -1.19 | 58.3 | -0.945 | 83.5 | inactive

Look-ups from the list.
For “activity call”, CEP152 #2 has inactive
MOCS2 #1, total luciferase, z-score = 0.2
Entry for KRT74 #1 under “viable cells, % of control”: 83.8
For “viable cells, % of control”, RNASET2 #1 shows 88

The list goes on:
gene | reagent no. | total luciferase, z-score | total luciferase, % of control | luciferase per cell, z-score | viable cells, % of control | activity call
WAS | 1 | -0.0298 | 81.3 | -0.206 | 95.9 | inactive
WAS | 2 | -1.03 | 61.5 | 1.93 | 41.3 | inactive
WAS | 3 | 1.43 | 110 | 0.664 | 104 | inactive
GTF2H4 | 1 | 0.547 | 92.8 | 1.53 | 69.3 | inactive
GTF2H4 | 2 | -0.99 | 62.2 | -0.933 | 88.8 | inactive
GTF2H4 | 3 | 0.191 | 85.7 | 0.0804 | 93.7 | inactive
NHLRC4 | 1 | 0.566 | 93.1 | 1.32 | 73.6 | inactive
NHLRC4 | 2 | -0.912 | 63.7 | -0.872 | 89.6 | inactive
NHLRC4 | 3 | -1.01 | 61.8 | 0.307 | 63.7 | inactive
OSTCP3 | 1 | -0.9 | 64 | -0.735 | 86.8 | inactive
OSTCP3 | 2 | -0.627 | 69.4 | -0.189 | 81.5 | inactive
OSTCP3 | 3 | 0.201 | 85.9 | 0.358 | 87.4 | inactive
DDIAS | 1 | 0.781 | 97.4 | 0.979 | 84.1 | inactive
DDIAS | 2 | 0.202 | 85.9 | -0.0489 | 97.2 | inactive
DDIAS | 3 | -1.68 | 48.5 | -0.751 | 66 | inactive
